# Library screening results

Source: ChEMBL document CHEMBL3988442, “University of Dundee, Small-Polar-MMV Screening Library” (2021).

Results are given as percent effect.
How 0% and 100% were set is not recorded. Most values in the screen are low, and negative values occur.
Compounds were drawn at random from those tested, without regard to their results.
Two or more numbers in one place are separate tests of the same structure; such repeats can differ widely.

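Viability assay of Plasmodium falciparum sporozoites; the read-out is not stated. The concentration is filed as 10 mM, unlikely as a test dose, so the dose is not known. Direction is inferred from retests: higher values go with lower viability. Strong results were mostly tested again. Size under these conditions: about 34,000 compounds, about 280 of them at 50% or above in at least one test.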

{"structure": "Cc1ccc(C(=O)N2CCC3(CCC(C(=O)NCC4CC4)O3)CC2)o1", "stereo": "stereo not drawn", "Percent Effect": -2.347}
{"structure": "CN(CC1CC1)C(=O)CN(Cc1cccc(O)c1)C1CCC(O)CC1", "stereo": "stereo not drawn", "Percent Effect": 7.151}
{"structure": "CC(C)(C)c1nc(CN2CCCN(Cc3cccs3)CC2)no1", "Percent Effect": 9.171}
{"structure": "N#Cc1ccccc1N1CCN(CCC(=O)N2CCOCC2)CC1", "Percent Effect": -4.079}
{"structure": "CC(NC(=O)N1CCCN(C)CC1)c1ccc(S(N)(=O)=O)cc1", "stereo": "stereo not drawn", "Percent Effect": -3.547}
{"structure": "CN(C(=O)Nc1cccc(C#N)c1)C1CCN(c2ccccn2)CC1", "Percent Effect": -13.68}
{"structure": "COc1ccc(CN(C)[C@@H]2CN(C(=O)c3ccnn3C)C[C@H]2O)cc1", "Percent Effect": 6.935}
{"structure": "COC(=O)c1cccc(NC(=O)CN2CCN(S(C)(=O)=O)CC2)c1", "Percent Effect": -14.53}
{"structure": "Cn1cc(CN2CCOC(c3nccnc3-c3cccc(F)c3)C2)cn1", "stereo": "stereo not drawn", "Percent Effect": 13.8}
{"structure": "Cc1cccc(CN2CCC3(CCN(Cc4ccccn4)C3)C2=O)c1.O=C(O)C(F)(F)F.O=C(O)C(F)(F)F", "stereo": "stereo not drawn", "Percent Effect": 10.88}
{"structure": "O=C(Cn1cc(I)cn1)N1CCc2ccccc2C1", "Percent Effect": -12.94}
{"structure": "CNS(=O)(=O)c1cccc(C(C)NCc2cccc(OC)c2)c1", "stereo": "stereo not drawn", "Percent Effect": -7.892}
{"structure": "O=C(c1ccc(C(F)(F)F)cc1)N1C[C@@H](CN2CCCCC2)[C@@H](CO)C1", "Percent Effect": "-18.89 and -15.78"}
{"structure": "Cc1cnn(C2CN(CC(O)c3ccc(F)cc3)C2)c1", "stereo": "stereo not drawn", "Percent Effect": -0.8584}
{"structure": "CC1CCN(Cc2c(C(C)C)[nH]c3ncccc23)CC1", "Percent Effect": 2.648}
{"structure": "Cc1oc(C(=O)O)cc1S(=O)(=O)Nc1ccccc1F", "Percent Effect": -17.05}
{"structure": "CCc1ccc(S(=O)(=O)Nc2cc(OC)c(OC)cc2C(=O)O)s1", "Percent Effect": -2.689}
{"structure": "N#Cc1ccc(CNCC2CCN(CCO)CC2)cc1", "Percent Effect": 3.424}
{"structure": "Cc1csc2c(C3CCCN(C(=O)CCCn4cncn4)C3)nc(C)n12", "stereo": "stereo not drawn", "Percent Effect": 3.893}
{"structure": "O=C(CCn1cc(Cl)cn1)Nc1nncs1", "Percent Effect": 10.66}
{"structure": "CCOc1ccc(Cl)cc1CCNC(=O)N1CCCC(CO)C1", "stereo": "stereo not drawn", "Percent Effect": -9.592}
{"structure": "Cc1nn(C)c(N2CCOCC2)c1CNCc1nccs1", "Percent Effect": 0}
{"structure": "CC(C)c1noc(Cn2ncn3cccc3c2=O)n1", "Percent Effect": -5.367}
{"structure": "[H][C@@]12CN(C(=O)c3cnc(C)cn3)C[C@]1([H])C(=O)N(Cc1cccc(F)c1)C2", "Percent Effect": -11.3}
{"structure": "[H][C@@]12CCN(c3ccncn3)C[C@@]1([H])[C@H](C(=O)Nc1cccnc1C)CCO2", "Percent Effect": 1.798}
{"structure": "OCCN1CCC(CNCc2ccccc2OC(F)(F)F)CC1", "Percent Effect": 6.725}
{"structure": "CN(C)c1ncccc1CNC(=O)NCC(c1cccs1)N(C)C", "stereo": "stereo not drawn", "Percent Effect": 8.415}
{"structure": "CN1C(=O)CC(C(=O)O)C12CCN(c1ccc3cccc(Cl)c3n1)CC2", "stereo": "stereo not drawn", "Percent Effect": -14.92}
{"structure": "CN1CCC(N(C)C(=O)c2cnn(-c3cc(F)ccc3F)c2N)CC1", "Percent Effect": "-2.259 and -12.15 and 12.52"}
{"structure": "Cc1nc(Nc2cnccn2)cc(C2CCCN2)n1.Cl", "stereo": "stereo not drawn", "Percent Effect": 10.08}
{"structure": "COc1ccc(-n2cnnc2SCC(=O)NC(C)C)cn1", "Percent Effect": -8.824}
{"structure": "CN(Cc1n[nH]c2c1CCC2)C(=O)c1cc(-c2cccn2C)n[nH]1", "Percent Effect": 3.402}
{"structure": "CCc1noc(CN(Cc2cccs2)CC2CCCO2)n1", "stereo": "stereo not drawn", "Percent Effect": 3.836}
{"structure": "COc1ccc(CN2CCOC3(CCCN(c4nnc(C)o4)C3)C2)cc1.O=C(O)C(F)(F)F", "stereo": "stereo not drawn", "Percent Effect": -11.51}
{"structure": "O=C(c1cccc(O)n1)N1CCC(O)(CN2CCC(F)(F)CC2)C1", "stereo": "stereo not drawn", "Percent Effect": 7.481}
{"structure": "CN(C)C(=O)c1cnc2n1CCN(Cc1cccnc1)C2.O=C(O)C(F)(F)F.O=C(O)C(F)(F)F", "Percent Effect": 7.99}
{"structure": "Cc1cc(F)cc2c(N3CCS(=O)(=O)CC3)c(C#N)cnc12", "Percent Effect": -6.389}
{"structure": "CN1CCc2c(C#N)c(NCCc3ccccc3)n3cnnc3c2C1", "Percent Effect": -2.816}
{"structure": "CCN1CCOCC12CCN(C(=O)C1CCCC1)CC2.O=C(O)C(F)(F)F", "Percent Effect": 4.332}
{"structure": "CC(=O)c1cccc(OCC(=O)NS(=O)(=O)c2ccc(Br)s2)c1", "Percent Effect": 4.108}
{"structure": "CCCOCCN1CCC2(CC1)CC(c1ccccc1)C(=O)N2C", "stereo": "stereo not drawn", "Percent Effect": 5.15}
{"structure": "N#Cc1c(Cl)nsc1NCC1(c2ccccc2)CCC1", "Percent Effect": -5.029}

The last 4 entries again:

* CCN1CCOCC12CCN(C(=O)C1CCCC1)CC2.O=C(O)C(F)(F)F : 4.332%
* CC(=O)c1cccc(OCC(=O)NS(=O)(=O)c2ccc(Br)s2)c1 : 4.108%
* CCCOCCN1CCC2(CC1)CC(c1ccccc1)C(=O)N2C (stereo not drawn) : 5.15%
* N#Cc1c(Cl)nsc1NCC1(c2ccccc2)CCC1 : -5.029%